Experimental data: PubChem BioAssay AID1259260 (Sanger Institute, 2017)
Purpose: 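Kinome knock-down with three anchor drugs to find synergy partners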 (primary screen). Cells: human NCI-H716 colorectal cancer cells. Reagent: siRNA pool against human genes. Treatment: anchor drugs BYL719 (alpelisib) 1 µM, cetuximab 5 µg/ml or trametinib 10 nM, each at a dose chosen to harm viability only mildly; DMSO vehicle for the knock-down-alone arm. Detection: 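Mean viability over replicates against non-targeting siRNA, robust z-score without drug, and per-drug synergy comparing combined with single treatments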. Reading the numbers: viability robust z-score, siRNA alone: higher = more surviving cells; below -3 called essential. Rule for the call: 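Essential when the robust z-score for knock-down alone falls below -3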. Meaning of the calls: active = essential (knock-down alone lowers viability); inactive = no essential effect.
The deposit covers 794 reagents; shown is a part drawn at random. Of all reagents, 13 (1.6%) got an active call. 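Calls reflect only knock-down without drug; synergy above 0.15 was grouped apart and does not change the call.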 Further read-outs or replicates are left out here. The record does not give: the amount of reagent, the time to read-out.

gene | viability robust z-score, siRNA alone | Call
PDGFRB | -0.201 | inactive
ALPK2 | 0.602 | inactive
CAMK2A | 0.224 | inactive
MAP2K6 | 0.602 | inactive
ZAP70 | 0.602 | inactive
RYK | 0.602 | inactive
FCSK | 0.602 | inactive
MYH10 | 0.602 | inactive
MAP3K10 | 0.602 | inactive
BPTF | 0.602 | inactive
BMPR1A | 0.602 | inactive
CHKB | -0.202 | inactive
HUS1 | 0.602 | inactive
MAPK7 | 0.602 | inactive
MERTK | 0.134 | inactive
MAPKAPK2 | 0.602 | inactive
PANK2 | -0.742 | inactive
DGKI | 0.602 | inactive
STK38 | -0.518 | inactive
MAPK14 | -0.744 | inactive
PIK3R1 | -0.849 | inactive
AGK | 0.602 | inactive
N4BP2 | 0.602 | inactive
BRD2 | -0.0781 | inactive
WNK3 | 0.602 | inactive
COASY | -0.509 | inactive
MASTL | 0.602 | inactive
CDKN2B | -1.7 | inactive
AKAP9 | -0.367 | inactive
SRGAP3 | 0.602 | inactive
CDKN2D | 0.602 | inactive
TNK1 | 0.602 | inactive
ATRX | 0.602 | inactive
HASPIN | 0.285 | inactive

Copied from the list.
Under “Call”, PIK3R1 is entered as inactive
Value for BPTF under “viability robust z-score, siRNA alone”: 0.602
MAP2K6, viability robust z-score, siRNA alone: 0.602
For “viability robust z-score, siRNA alone”, FCSK has 0.602
Under “Call”, MAP3K10 is entered as inactive
